The first data set is described as follows: Photosensitivity (Dose to Clear) in ArF model positive tone resist formulation. The conditions noted are these: ArF laser exposure; 2 parts PAG per 100 parts binder polymer in PGMEA; 120 nm film; post exposure bake 120° C. 1 min; 1 min development; smaller dose = more sensitive.
As for `O=C(CC1CC2CCC1C2)OCC(F)C(F)(F)S(=O)(=O)O` (centres unmarked) [Example 3], the “Dose to Clear (E0)” value is recorded as 1.8 mJ/cm^2.

`O=S(=O)(O)C(F)(F)C(F)CO` (centres unmarked) [Example 9]: the “Dose to Clear (E0)” value is 2.1 mJ/cm^2.

On to `COC(C)CCOC(=O)OCC(F)C(F)(F)S(=O)(=O)O` (centres unmarked) [Example 10], for which the “Dose to Clear (E0)” value was determined as 2.1 mJ/cm^2.

The nature of a further data set: Mobility of acid generated from PAG, bilayer method (thickness loss). The conditions noted are these: thickness loss of bilayer after exposure, post-exposure bake 110° C. 1 min and development, normalized with TPS nf; smaller number = lower acid mobility.
In turn, `CC12CCC(C(=O)OCC(F)C(F)(F)S(=O)(=O)O)(OC1=O)C2(C)C` (centres unmarked) [Example 4] gave a Normalised mobility of 0.40.

Regarding `O=C(OCC(F)C(F)(F)S(=O)(=O)O)C1C2CC3OC(=O)C1C3C2` (centres unmarked) [Example 6], the Normalised mobility came to 0.30.

For `O=C1CCC(C(=O)OCC(F)C(F)(F)S(=O)(=O)O)N1` (centres unmarked) [Example 8], the Normalised mobility amounted to 0.21.

As to `O=C(OCC(F)C(F)(F)S(=O)(=O)O)OC1C2CC3C(=O)OC1C3C2` (centres unmarked) [Example 11], the Normalised mobility turned out to be 0.41.

The compound `CC(=O)N1CCN(C(=O)OCC(F)C(F)(F)S(=O)(=O)O)C1=O` (centres unmarked) [Example 21] showed a Normalised mobility of 0.40.

As for `CCCC(=O)N1CCN(C(=O)OCC(F)C(F)(F)S(=O)(=O)O)C1=O` (centres unmarked) [Example 22], the Normalised mobility is reported as 0.40.

For the compound `CCCS(=O)(=O)N1CCN(C(=O)OCC(F)C(F)(F)S(=O)(=O)O)C1=O` (centres unmarked) [Example 24], the Normalised mobility was 0.34.

`CCOC(=O)NC1CCC(CC2CCC(NC(=O)OCC(F)C(F)(F)S(=O)(=O)O)CC2)CC1` (centres unmarked) [Example 28] registered a Normalised mobility of 0.36.

Take `CC12CCC(C(=O)OCC(F)C(F)(F)S(=O)(=O)O)(OC1=O)C2(C)C` (centres unmarked) [Example 32]: the Normalised mobility is listed as 0.41.

Compound `CS(=O)(=O)N1CCN(C(=O)OCC(F)C(F)(F)S(=O)(=O)O)C1=O` (centres unmarked) [Example 36] gave a Normalised mobility of 0.25.

`CS(=O)(=O)N1CCN(C(=O)OCC(F)C(F)(F)S(=O)(=O)O)C1=O` (centres unmarked) [Example 41] yielded a Normalised mobility of 0.28.

For the origin of these results see US8580478B2, “Latent acids and their use” (BASF SE, priority 2010, dated 2013).
